Data published in paper PMC12002259.
For at least one entry, the source does not settle the construct or the ends of the probe. At least one verdict rests on a figure or table, not on a statement of the authors.

Protein sequences, listed by entry. Tags and fused reporters are not part of them. Lines headed by an entry give the natural chain unless they say otherwise; changes in a name come on top.
UniProt P43351: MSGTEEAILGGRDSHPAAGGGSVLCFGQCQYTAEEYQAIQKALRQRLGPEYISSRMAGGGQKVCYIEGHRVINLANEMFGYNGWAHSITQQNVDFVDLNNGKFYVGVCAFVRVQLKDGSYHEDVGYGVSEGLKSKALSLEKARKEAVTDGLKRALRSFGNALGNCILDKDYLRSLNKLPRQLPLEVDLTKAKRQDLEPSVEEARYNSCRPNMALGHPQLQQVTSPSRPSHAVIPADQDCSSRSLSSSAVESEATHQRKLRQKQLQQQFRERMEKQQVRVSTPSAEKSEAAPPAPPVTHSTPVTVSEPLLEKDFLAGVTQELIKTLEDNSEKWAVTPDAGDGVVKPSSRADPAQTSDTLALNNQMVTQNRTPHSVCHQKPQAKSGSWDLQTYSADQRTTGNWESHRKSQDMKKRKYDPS

Molecular target: RAD52 full length (human) (UniProt P43351)
Experiment: mass photometry
Settings: 100 nM protein, 10 nM DNA, large clusters form; mass photometry: 20 mM Tris-HCl, 50 mM NaCl, pH 7.5; recombinant protein; residues 1-418; protein details: His-tag (pET-15b); single-stranded DNA

GCAATTAAGCTCTAAGCCATCCGCAAAAATGACCTCTTATCAAAAGGA [48 nt unlabeled]
binding result: binds
